Results are given in words; binding and its absence hold for the method and conditions named. In cells and extracts the contact can be indirect. Some binding calls cover weakened binding; strength is not graded here.
Target: T1, Rab GTPase 3C (UniProt Q96E17)
T1 sequence: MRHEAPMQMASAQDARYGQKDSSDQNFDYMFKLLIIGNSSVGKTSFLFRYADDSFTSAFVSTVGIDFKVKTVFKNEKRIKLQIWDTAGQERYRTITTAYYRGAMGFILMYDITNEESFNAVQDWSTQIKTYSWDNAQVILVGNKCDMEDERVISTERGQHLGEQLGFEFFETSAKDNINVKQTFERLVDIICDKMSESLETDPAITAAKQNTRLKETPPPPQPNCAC
Assay: co-IP; whole-cell lysates (2 mg) of SW480, SW48 and DLD-1 RAB3C-overexpression models; antibody against RAB3C or dystrophin with protein A/G magnetic beads, overnight in IP buffer; two-way (both directions)

Chains of the proteins cited; added tags and fusions are not shown.
UniProt P11532: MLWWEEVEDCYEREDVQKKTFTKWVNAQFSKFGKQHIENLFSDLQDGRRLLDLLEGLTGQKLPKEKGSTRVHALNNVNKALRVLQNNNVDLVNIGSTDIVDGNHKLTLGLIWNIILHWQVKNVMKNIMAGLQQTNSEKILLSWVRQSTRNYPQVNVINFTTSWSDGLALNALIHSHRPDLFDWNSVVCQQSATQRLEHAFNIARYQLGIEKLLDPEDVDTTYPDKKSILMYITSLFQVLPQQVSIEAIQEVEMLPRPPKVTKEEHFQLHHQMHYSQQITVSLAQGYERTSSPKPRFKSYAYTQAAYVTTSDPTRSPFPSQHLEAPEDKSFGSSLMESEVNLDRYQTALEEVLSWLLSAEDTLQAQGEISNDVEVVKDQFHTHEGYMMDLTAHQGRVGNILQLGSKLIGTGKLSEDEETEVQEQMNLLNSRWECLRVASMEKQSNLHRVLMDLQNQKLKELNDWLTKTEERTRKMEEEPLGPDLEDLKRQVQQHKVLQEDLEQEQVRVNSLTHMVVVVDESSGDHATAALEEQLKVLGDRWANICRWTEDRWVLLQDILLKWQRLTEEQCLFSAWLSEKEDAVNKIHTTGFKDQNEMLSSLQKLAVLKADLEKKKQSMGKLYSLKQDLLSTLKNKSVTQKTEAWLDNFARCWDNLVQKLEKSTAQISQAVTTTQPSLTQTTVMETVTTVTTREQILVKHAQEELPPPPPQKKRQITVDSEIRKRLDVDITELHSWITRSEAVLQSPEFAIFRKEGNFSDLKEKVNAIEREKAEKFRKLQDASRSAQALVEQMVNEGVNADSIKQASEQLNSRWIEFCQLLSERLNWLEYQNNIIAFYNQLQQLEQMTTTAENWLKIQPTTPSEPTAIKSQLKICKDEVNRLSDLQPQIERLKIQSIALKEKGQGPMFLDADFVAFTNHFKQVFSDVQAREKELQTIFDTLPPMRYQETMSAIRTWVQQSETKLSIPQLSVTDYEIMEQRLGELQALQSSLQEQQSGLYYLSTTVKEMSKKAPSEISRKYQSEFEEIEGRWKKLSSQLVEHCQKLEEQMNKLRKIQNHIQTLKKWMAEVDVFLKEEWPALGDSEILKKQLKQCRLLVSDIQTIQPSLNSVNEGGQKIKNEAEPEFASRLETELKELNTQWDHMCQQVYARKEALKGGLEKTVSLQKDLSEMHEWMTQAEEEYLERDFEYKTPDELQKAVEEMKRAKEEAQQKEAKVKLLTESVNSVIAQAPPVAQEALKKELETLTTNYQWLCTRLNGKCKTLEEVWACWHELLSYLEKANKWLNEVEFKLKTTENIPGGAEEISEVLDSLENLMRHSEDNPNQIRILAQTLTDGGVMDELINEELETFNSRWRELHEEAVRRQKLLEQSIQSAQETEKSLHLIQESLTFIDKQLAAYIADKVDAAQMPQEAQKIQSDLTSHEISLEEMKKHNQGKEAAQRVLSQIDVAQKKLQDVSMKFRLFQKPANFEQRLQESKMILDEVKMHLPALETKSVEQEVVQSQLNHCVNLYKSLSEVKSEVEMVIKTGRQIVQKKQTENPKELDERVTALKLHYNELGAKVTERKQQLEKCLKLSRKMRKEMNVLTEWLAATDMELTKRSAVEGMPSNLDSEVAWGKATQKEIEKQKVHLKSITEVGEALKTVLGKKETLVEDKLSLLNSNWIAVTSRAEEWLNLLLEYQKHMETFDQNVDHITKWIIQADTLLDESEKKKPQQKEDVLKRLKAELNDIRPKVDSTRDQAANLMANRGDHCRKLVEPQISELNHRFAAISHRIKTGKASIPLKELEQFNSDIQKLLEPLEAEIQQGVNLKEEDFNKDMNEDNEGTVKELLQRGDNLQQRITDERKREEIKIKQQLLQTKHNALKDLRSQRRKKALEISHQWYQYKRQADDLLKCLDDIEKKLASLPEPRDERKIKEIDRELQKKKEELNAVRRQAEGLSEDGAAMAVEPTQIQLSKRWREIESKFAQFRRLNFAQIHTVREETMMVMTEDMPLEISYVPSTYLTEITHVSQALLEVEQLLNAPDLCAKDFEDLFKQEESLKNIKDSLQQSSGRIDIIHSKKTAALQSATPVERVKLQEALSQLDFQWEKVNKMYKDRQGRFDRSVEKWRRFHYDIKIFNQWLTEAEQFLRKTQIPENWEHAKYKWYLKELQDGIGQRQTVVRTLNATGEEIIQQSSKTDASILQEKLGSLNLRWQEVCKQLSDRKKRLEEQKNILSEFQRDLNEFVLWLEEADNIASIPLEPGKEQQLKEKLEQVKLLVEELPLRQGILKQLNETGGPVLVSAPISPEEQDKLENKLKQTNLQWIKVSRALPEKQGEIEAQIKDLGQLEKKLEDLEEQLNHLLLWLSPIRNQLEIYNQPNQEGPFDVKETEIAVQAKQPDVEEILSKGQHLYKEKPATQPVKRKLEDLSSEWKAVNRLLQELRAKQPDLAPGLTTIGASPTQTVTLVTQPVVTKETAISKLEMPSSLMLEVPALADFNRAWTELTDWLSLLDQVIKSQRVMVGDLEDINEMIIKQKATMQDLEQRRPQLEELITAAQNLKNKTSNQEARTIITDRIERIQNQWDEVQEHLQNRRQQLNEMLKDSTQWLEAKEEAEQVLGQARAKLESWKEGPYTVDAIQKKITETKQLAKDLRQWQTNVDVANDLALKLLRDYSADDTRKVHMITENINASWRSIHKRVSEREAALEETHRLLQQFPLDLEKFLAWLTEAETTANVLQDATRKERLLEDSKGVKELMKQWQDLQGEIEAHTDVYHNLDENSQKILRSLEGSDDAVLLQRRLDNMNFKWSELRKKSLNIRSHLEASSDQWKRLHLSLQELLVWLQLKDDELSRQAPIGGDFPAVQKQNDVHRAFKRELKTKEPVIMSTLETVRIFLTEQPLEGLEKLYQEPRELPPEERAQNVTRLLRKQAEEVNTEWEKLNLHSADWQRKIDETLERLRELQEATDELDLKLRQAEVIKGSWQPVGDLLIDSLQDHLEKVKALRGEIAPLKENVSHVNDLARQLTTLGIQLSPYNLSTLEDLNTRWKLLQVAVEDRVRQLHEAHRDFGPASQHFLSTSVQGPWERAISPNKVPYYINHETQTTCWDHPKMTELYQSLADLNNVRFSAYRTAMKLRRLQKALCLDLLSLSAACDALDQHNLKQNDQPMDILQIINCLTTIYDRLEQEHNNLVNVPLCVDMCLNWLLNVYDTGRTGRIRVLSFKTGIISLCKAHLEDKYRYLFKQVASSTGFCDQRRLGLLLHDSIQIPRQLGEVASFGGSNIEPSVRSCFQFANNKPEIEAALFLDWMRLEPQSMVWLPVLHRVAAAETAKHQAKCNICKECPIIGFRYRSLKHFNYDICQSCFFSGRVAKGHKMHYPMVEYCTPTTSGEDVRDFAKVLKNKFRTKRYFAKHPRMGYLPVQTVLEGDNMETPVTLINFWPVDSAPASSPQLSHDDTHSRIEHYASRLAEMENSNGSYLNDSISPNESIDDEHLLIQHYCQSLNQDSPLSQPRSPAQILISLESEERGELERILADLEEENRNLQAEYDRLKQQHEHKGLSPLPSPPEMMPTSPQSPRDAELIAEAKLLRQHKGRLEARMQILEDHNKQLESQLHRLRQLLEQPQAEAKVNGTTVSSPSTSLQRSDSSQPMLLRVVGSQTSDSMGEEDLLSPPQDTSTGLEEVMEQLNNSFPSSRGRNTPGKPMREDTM

In the case of dystrophin (from UniProt P11532 1-3685), the binding is reported as “binds”.

— PMC9980308
